Values from PubChem BioAssay AID1259254 (NCATS, 2017).
The whole screen tested about 59,000 reagents; below is an unselected part. About 1,550 of them (2.6%) were called active. 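G2 share is only a proxy for re-replication; each gene was hit by three separate siRNAs, and active genes were retested.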 Entries without a mark were called inactive. Reagents against one gene are numbered here. Further read-outs or replicates are left out here. Not given: the amount of reagent.

Aim: 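Genome-wide screen for genes that prevent DNA re-replication in cancer cells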 (primary screen)
System: human HCT116 colorectal cancer cells
Reagent: single siRNA against human genes
Duration: 3 days
Read-out: 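Imaged Hoechst DNA stain sorts each cell into a cycle phase by DNA amount; per plate, G2 fraction set to 0% for non-targeting and 100% for GMNN siRNA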
Direction: G2 robust z-score: higher = more G2 cells, more excess DNA replication
Hit rule: 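Active siRNAs have a G2 robust z of 5 or more median absolute deviations over the median, which in these data means about 38% or higher of GMNN control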

SLC10A6 #1 showed G2 robust z-score 0.389.
Silencing of SLC10A6 #2 resulted in: G2 robust z-score -1.
With knock-down of SLC10A6 #3, the screen gave G2 robust z-score 1.33.
For RPL41 #1, the values are G2 robust z-score 4.81.
After knock-down of RPL41 #2, the record shows G2 robust z-score 5.
For RPL41 #3, the values are G2 robust z-score 1.29.
SPRR2G #1 gave G2 robust z-score -0.713.
Silencing of SPRR2G #2 came out at: G2 robust z-score -0.165.
SPRR2G #3 gave G2 robust z-score 1.63.
Silencing of TMEM255A #1 resulted in: G2 robust z-score 0.0237.
For TMEM255A #2, the values are G2 robust z-score 1.2.
Knock-down of TMEM255A #3 gave: G2 robust z-score 0.116.
For ZNF70 #1 the deposit lists G2 robust z-score -0.568.
With knock-down of ZNF70 #2 the results were G2 robust z-score 1.24.
After knock-down of ZNF70 #3, the screen gave G2 robust z-score -0.57.

3 entries from above, set out differently.
Gene,siRNA no.,G2 robust z-score
TMEM255A,1,0.0237
TMEM255A,2,1.2
TMEM255A,3,0.116

The listing continues:
Against ZDHHC12 #1, the values are G2 robust z-score 0.165.
Silencing of ZDHHC12 #2 gave: G2 robust z-score 0.288.
Against ZDHHC12 #3, the values are G2 robust z-score 0.482.
After knock-down of ATXN3L #1, the screen gave G2 robust z-score 0.344.
ATXN3L #2 gave G2 robust z-score -0.124.
With knock-down of ATXN3L #3 the results were G2 robust z-score -0.234.
For VRK1 #1, the values are G2 robust z-score 1.79.
With knock-down of VRK1 #2, the record shows G2 robust z-score -1.01.
Silencing of VRK1 #3 gave: G2 robust z-score -0.767.
Depletion of ATP6V0E2-AS1 #1 resulted in: G2 robust z-score -0.753.
With knock-down of ATP6V0E2-AS1 #2, the record shows G2 robust z-score -0.0876.
After knock-down of ATP6V0E2-AS1 #3, the screen gave G2 robust z-score -0.435.
For PDZK1IP1 #1, the values are G2 robust z-score -0.545.
After knock-down of PDZK1IP1 #2, the record shows G2 robust z-score 1.1.
For PDZK1IP1 #3, the values are G2 robust z-score 1.12.
